Experimental data published in article PMC9757077, “The B. subtilis Rok protein is an atypical H-NS-like protein irresponsive to physico-chemical cues”.
No constants are given. Whether binding was seen depends on the method and setting. Binding calls can cover weak binding; strength is not graded here. Sequences can lack the tags named with a protein.

Target: T1, Rok with a C-terminal His-tag (Rok-6xHis) (B. subtilis 168) (UniProt O34857)
T1 sequence: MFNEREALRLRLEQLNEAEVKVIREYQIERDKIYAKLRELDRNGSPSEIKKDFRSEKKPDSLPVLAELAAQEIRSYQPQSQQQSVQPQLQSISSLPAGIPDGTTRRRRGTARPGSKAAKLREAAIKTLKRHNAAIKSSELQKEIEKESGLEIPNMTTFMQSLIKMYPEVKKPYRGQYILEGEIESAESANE
Experiment: pull-down; Rok-6xHis captured on HisPur Ni-NTA magnetic beads, sRok without His-tag added in 1:1 molar ratio (8.75 uM final); 20 mM Tris-HCl pH 8.0, 500 mM KCl, 50 mM imidazole, 3.5% glycerol, 0.05% Tween, 0.8 mg/ml acetylated BSA; eluted with 500 mM imidazole; SDS-PAGE, Coomassie; both purified

small Rok (sRok) (B. subtilis (plasmid pLS20))
binding: binds
